This data set in a line: general procedure: Fmoc solid-phase peptide synthesis; Rink Amide MBHA resin (0.66 mmol/g loading). As to conditions: whole synthesis, analytical RP-HPLC, scale of the general procedure 10 g resin, acetate.

Some results are limits rather than exact numbers.

For the substance “Ac-[Pen]*-N-T-[W(7-Me)]-[Lys(Ac)]-[Pen]*-Phe[4-(2-aminoethoxy)]-[2-Nal]-[THP]-E-N-[3-Pal]-Sarc-NH2 (*Pen-Pen form disulfide bond)”, the “final HPLC purity” value was greater than 95%.

Source of the values: US11939361B2 (Janssen Pharmaceutica NV, priority 2020, dated 2024).
